The list shows a part of the results. Single values are uncertain, as repeats are few or missing.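 Imaging used 1,536-well plates; nuclei positive for cleaved PARP by antibody were divided by total DNA-stained nuclei to yield the apoptosis fraction. Doses for screening kept most cells viable, and cell lines differ markedly in resting and induced cleaved-PARP levels.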
How the values were obtained:
Test in all cases: cleaved PARP positive nuclei fraction relative to DMSO control; melanoma cells; higher = more apoptosis
Conditions in all cases: library dose: low library concentration; 72 h
COLO792 = test system: COLO792
COLO800 = test system: COLO800
COLO829 = test system: COLO829
G361 = test system: G361
IPC-298 = test system: IPC-298
IST-MEL1 = test system: IST-MEL1
LB2518-MEL = test system: LB2518-MEL
LOXIMVI = test system: LOXIMVI
MEL-HO = test system: MEL-HO
MZ2-MEL = test system: MZ2-MEL
MeWo = test system: MeWo
RPMI7951 = test system: RPMI7951
RVH-421 = test system: RVH-421
SkMel28 = test system: SkMel28
SkMel2 = test system: SkMel2
SkMel30 = test system: SkMel30
SkMel5 = test system: SkMel5
UACC257 = test system: UACC257
UACC62 = test system: UACC62

| Structure (SMILES) | cleaved PARP positive nuclei fraction (COLO792) [%] | cleaved PARP positive nuclei fraction (COLO800) [%] | cleaved PARP positive nuclei fraction (COLO829) [%] | cleaved PARP positive nuclei fraction (G361) [%] | cleaved PARP positive nuclei fraction (IPC-298) [%] | cleaved PARP positive nuclei fraction (IST-MEL1) [%] | cleaved PARP positive nuclei fraction (LB2518-MEL) [%] | cleaved PARP positive nuclei fraction (LOXIMVI) [%] | cleaved PARP positive nuclei fraction (MEL-HO) [%] | cleaved PARP positive nuclei fraction (MZ2-MEL) [%] | cleaved PARP positive nuclei fraction (MeWo) [%] | cleaved PARP positive nuclei fraction (RPMI7951) [%] | cleaved PARP positive nuclei fraction (RVH-421) [%] | cleaved PARP positive nuclei fraction (SkMel28) [%] | cleaved PARP positive nuclei fraction (SkMel2) [%] | cleaved PARP positive nuclei fraction (SkMel30) [%] | cleaved PARP positive nuclei fraction (SkMel5) [%] | cleaved PARP positive nuclei fraction (UACC257) [%] | cleaved PARP positive nuclei fraction (UACC62) [%] |
| --- | --- | --- | --- | --- | --- | --- | --- | --- | --- | --- | --- | --- | --- | --- | --- | --- | --- | --- | --- |
| Nc1cccc2c1CN(C1CCC(=O)NC1=O)C2=O (configuration not stated) [lenalidomide] + C=CCn1c(=O)c2cnc(Nc3ccc(N4CCN(C)CC4)cc3)nc2n1-c1cccc(C(C)(C)O)n1 [MK1775] (first compound 1 µM, partner dose 0.02 µM) | 117 | 30.1 | 56.1 | 57.6 | 42.7 | 67.3 | 93.1 | 13.2 | 46.9 | 153 | 73.6 | 61.5 | 40.5 | 132 | 150 | 42.5 | 32.7 | 35.9 | 105 |
| C#Cc1cccc(Nc2ncnc3cc(OCCOC)c(OCCOC)cc23)c1 [erlotinib] + Cn1cncc1[C@@](N)(c1ccc(Cl)cc1)c1ccc2c(c1)c(-c1cccc(Cl)c1)cc(=O)n2C [tipifarnib] (first compound 0.8 µM, partner dose 0.01 µM) | 115 | 82.4 | 73.1 | 79.7 | 205 | 94 | 107 | 38 | 66.4 | 76.8 | 375 | 55.2 | 63.9 | 76.9 | 79.2 | 162 | 212 | 102 | 240 |
| Nc1cccc2c1CN(C1CCC(=O)NC1=O)C2=O (configuration not stated) [lenalidomide] + Cn1cncc1[C@@](N)(c1ccc(Cl)cc1)c1ccc2c(c1)c(-c1cccc(Cl)c1)cc(=O)n2C [tipifarnib] (first compound 1 µM, partner dose 0.01 µM) | 78.1 | 88.1 | 107 | 86.1 | 46 | 96.9 | 101 | 42.2 | 133 | 119 | 72.8 | 292 | 113 | 129 | 241 | 68.4 | 68.2 | 57.6 | 176 |
| Cc1nc(Nc2ncc(C(=O)Nc3c(C)cccc3Cl)s2)cc(N2CCN(CCO)CC2)n1 [dasatanib] + Cc1ccc(NC(=O)c2cccc(N(C)C)c2)cc1NC(=O)c1ccc(O)cc1 [ZM336372] (first compound 0.004 µM, partner dose 2 µM) | 105 | 125 | 66.7 | 108 | 564 | 182 | 65.9 | 125 | 108 | 144 | 72 | 139 | 61.3 | 148 | 57.4 | 68.9 | 45.6 | 53.5 | 95.5 |
| COCC[n+]1c2c(n(Cc3cnccn3)c1C)C(=O)c1ccccc1C2=O + Cn1cncc1[C@@](N)(c1ccc(Cl)cc1)c1ccc2c(c1)c(-c1cccc(Cl)c1)cc(=O)n2C [tipifarnib] (first compound 0.0004 µM, partner dose 0.01 µM) | 113 | 136 | 98.1 | 224 | 71.5 | 75.5 | 219 | 94.6 | 153 | 155 | 93.7 | 32.7 | 78.1 | 46.9 | 194 | 80.2 | 144 | 162 | 158 |
| CC1(C)NC(=O)N(c2ccc([N+](=O)[O-])c(C(F)(F)F)c2)C1=O [nilutamide] + O=C(Nc1cccc(Cl)c1)Nc1ncc(CCNc2ncnc3ccsc23)s1 [SNS314] (first compound 1 µM, partner dose 0.0008 µM) | 78.9 | 81.1 | 50 | 104 | 120 | 99.1 | 99.9 | 44.4 | 115 | 158 | 141 | 27.5 | 88.3 | 74.5 | 96.5 | 52.4 | 68.3 | 173 | 52.8 |
| C=CCn1c(=O)c2cnc(Nc3ccc(N4CCN(C)CC4)cc3)nc2n1-c1cccc(C(C)(C)O)n1 + COc1cc2c(Oc3ccc4[nH]c(C)cc4c3F)ncnc2cc1OCCCN1CCCC1 [cediranib] (first compound 0.02 µM, partner dose 0.4 µM) | 171 | 29.5 | 61.6 | 100 | 97.2 | 29.8 | 113 | 105 | 144 | 28.8 | 110 | 54.6 | 483 | 182 | 95.1 | 76.1 | 158 | 42.2 | 216 |
| C[C@]1(c2nc3c(C(N)=O)cccc3[nH]2)CCCN1 [Veliparib] + CN(NC(=O)CC(=O)NN(C)C(=S)c1ccccc1)C(=S)c1ccccc1 [STA4783] (first compound 1.4 µM, partner dose 0.006 µM) | 143 | 97.3 | 208 | 98.7 | 126 | 188 | 364 | 214 | 32.5 | 48.9 | 53.1 | 110 | 49.5 | 64.5 | 54.9 | 96.8 | 136 | 255 | 76.5 |

Looked up above:
In cleaved PARP positive nuclei fraction (IST-MEL1) [%], COCC[n+]1c2c(n(Cc3cnccn3)c1C)C(=O)c1ccccc1C2=O + Cn1cncc1[C@@](N)(c1ccc(Cl)cc1)c1ccc2c(c1)c(-c1cccc(Cl)c1)cc(=O)n2C [tipifarnib] (first compound 0.0004 µM, partner dose 0.01 µM) shows 75.5
In cleaved PARP positive nuclei fraction (UACC62) [%], C[C@]1(c2nc3c(C(N)=O)cccc3[nH]2)CCCN1 [Veliparib] + CN(NC(=O)CC(=O)NN(C)C(=S)c1ccccc1)C(=S)c1ccccc1 [STA4783] (first compound 1.4 µM, partner dose 0.006 µM) shows 76.5
